The text below walks through data of patent publication US20210102174.

By UniProt entry, the sequences of proteins in these tests, tags left out.
UniProt P20263, whole entry, stated change not applied: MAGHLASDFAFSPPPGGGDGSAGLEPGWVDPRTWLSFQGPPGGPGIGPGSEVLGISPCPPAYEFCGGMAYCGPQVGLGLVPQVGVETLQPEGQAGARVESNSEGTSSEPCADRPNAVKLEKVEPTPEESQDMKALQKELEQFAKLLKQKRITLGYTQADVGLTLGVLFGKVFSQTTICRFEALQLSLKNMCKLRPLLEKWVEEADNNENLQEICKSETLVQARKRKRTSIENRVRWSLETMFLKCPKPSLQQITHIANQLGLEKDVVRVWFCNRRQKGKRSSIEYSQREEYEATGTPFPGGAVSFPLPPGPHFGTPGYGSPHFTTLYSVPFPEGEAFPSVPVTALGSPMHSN

The target in this series is Oct4 (co-expressed with Flag-Ash2l WT or W118A) (UniProt P20263). The series is described as follows: binding assay. As to conditions: plasmid ChIP in HEK293T, protein in cells, protein details: Myc.
Setting [1] is: enhanced by Flag-Ash2l WT, not W118A.

For at least one entry, the source does not settle the construct or the ends of the probe. Where cells or extracts were used, other partners may take part. A negative result means that nothing was seen under these conditions.

As to “TACATCCCTAGTAAACATCCAACTTCTTTTTATTC (double strand) [Jarid2 enhancer, intact Ash2l motif]”, the binding result under setting [1] is “binds”.

On to “TACATTTTATTC (double strand) [Jarid2 enhancer, Ash2l motif deleted]”, for which the binding result (Ash2l-mediated enhancement of Oct4 binding abolished, variant of Jarid2 enhancer, intact Ash2l motif) was “no binding”. For the sequence “TTTTCTTAAC (double strand) [Nanog enhancer, Ash2l motif deleted]”, where the note is “Ash2l-mediated enhancement of Oct4 binding abolished, variant of Nanog enhancer, intact Ash2l motif”, the binding result was “no binding”. Turning to “TTTTGACTGCTAACCACCCAGAGGACCCACTTAAC (double strand) [Nanog enhancer, intact Ash2l motif]”, under setting [1], the binding result is listed as “binds”.
